According to patent US20050222147A1, “Process for the preparation of morpholine derivatives and intermediates therefore” (priority 2000, published 2005):
Some of these results come from one statement about several compounds together. At least one compound was matched to its structure with a doubt left.

Target: T1, CCR-3 (Homo sapiens, UniProt P51677)
T1 construct: expressed in transfected cells
T1 sequence (P51677 1-355): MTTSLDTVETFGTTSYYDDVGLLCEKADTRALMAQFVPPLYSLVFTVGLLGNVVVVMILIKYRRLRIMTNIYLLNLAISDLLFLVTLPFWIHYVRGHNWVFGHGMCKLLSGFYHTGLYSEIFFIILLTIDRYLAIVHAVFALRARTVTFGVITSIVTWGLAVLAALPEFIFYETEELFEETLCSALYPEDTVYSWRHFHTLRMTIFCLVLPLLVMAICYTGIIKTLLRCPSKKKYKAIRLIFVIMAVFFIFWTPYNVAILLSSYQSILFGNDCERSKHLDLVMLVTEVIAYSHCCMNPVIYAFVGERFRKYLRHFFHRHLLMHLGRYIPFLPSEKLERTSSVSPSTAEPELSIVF
Experiment: CCR-3 competition binding SPA (scintillation proximity assay)
Settings: inhibition of [125I] eotaxin binding to membranes from K562 cells stably expressing CCR-3

| Molecule | pIC50 value in CCR-3 binding assay (assay (a)) |
| --- | --- |
| Cc1oc(-c2ccc(F)cc2)nc1CC(=O)NC[C@H]1CN(Cc2ccc3nonc3c2)CCO1 [Example 208, N-{[(2S)-4-(2,1,3-benzoxadiazol-5-ylmethyl)morpholin-2-yl]methyl}-2-[2-(4-fluorophenyl)-5-methyl-1,3-oxazol-4-yl]acetamide] | greater than 5.0 |
| Cc1oc(-c2ccc(F)cc2)nc1CC(=O)NC[C@H]1CN(Cc2ccc(F)c(F)c2F)CCO1 [Example 209, 2-[2-(4-fluorophenyl)-5-methyl-1,3-oxazol-4-yl]-N-{[(2S)-4-(2,3,4-trifluorobenzyl)morpholin-2-yl]methyl}acetamide] | greater than 5.0 |
| Cc1oc(-c2ccc(F)cc2)nc1CC(=O)NC[C@H]1CN(Cc2ccc(F)c(C(F)(F)F)c2)CCO1 [Example 210, 2-[2-(4-fluorophenyl)-5-methyl-1,3-oxazol-4-yl]-N-({(2S)-4-[4-fluoro-3-(trifluoromethyl)benzyl]morpholin-2-yl}methyl)acetamide] | greater than 5.0 |
| Cc1oc(-c2ccc(S(C)(=O)=O)cc2)nc1CC(=O)NC[C@H]1CN(Cc2ccc(Cl)c(Cl)c2)CCO1 [Example 211, N-{[(2S)-4-(3,4-dichlorobenzyl)morpholin-2-yl]methyl}-2-{5-methyl-2-[4-(methylsulfonyl)phenyl]-1,3-oxazol-4-yl}acetamide] | greater than 5.0 |
| Cc1sc(-c2ccccc2)nc1CC(=O)NC[C@H]1CN(Cc2ccc(Cl)c(Cl)c2)CCO1 [Example 212, N-{[(2S)-4-(3,4-dichlorobenzyl)morpholin-2-yl]methyl}-2-(5-methyl-2-phenyl-1,3-thiazol-4-yl)acetamide] | greater than 5.0 |
| Cc1sc(-c2cnccn2)nc1CC(=O)NC[C@H]1CN(Cc2ccc(Cl)c(Cl)c2)CCO1 [Example 213, N-{[(2S)-4-(3,4-dichlorobenzyl)morpholin-2-yl]methyl}-2-(5-methyl-2-pyrazin-2-yl-1,3-thiazol-4-yl)acetamide] | greater than 5.0 |
| Cc1oc(-c2ccc(F)cc2)nc1CC(=O)NC[C@H]1CN(CCCc2ccc(Cl)cc2)CCO1 [Example 214, N-({(2S)-4-[3-(4-chlorophenyl)propyl]morpholin-2-yl}methyl)-2-[2-(4-fluorophenyl)-5-methyl-1,3-oxazol4-yl]acetamide] | greater than 5.0 |
| Cc1oc(C2CC2)nc1CC(=O)NC[C@H]1CN(Cc2ccc(Cl)c(Cl)c2)CCO1 [Example 215, 2-(2-cyclopropyl-5-methyl-1,3-oxazol-4-yl)-N-{[(2S)-4-(3,4-dichlorobenzyl)morpholin-2-yl]methyl}acetamide] | greater than 5.0 |
| Cc1oc(CC(C)C)nc1CC(=O)NC[C@H]1CN(Cc2ccc(Cl)c(Cl)c2)CCO1 [Example 216, N-{[(2S)-4-(3,4-dichlorobenzyl)morpholin-2-yl]methyl}-2-(2-isobutyl-5-methyl-1,3-oxazol-4-yl)acetamide] | greater than 5.0 |
| CC(C)=Cc1nc(CC(=O)NC[C@H]2CN(Cc3ccc(Cl)c(Cl)c3)CCO2)c(C)o1 [Example 217, N-{[(2S)-4-(3,4-dichlorobenzyl)morpholin-2-yl]methyl}-2-[5-methyl-2-(2-methylprop-1-enyl)-1,3-oxazol-4-yl]acetamide] | greater than 5.0 |
| Cc1oc(-c2ccccn2)nc1CC(=O)NC[C@H]1CN(Cc2ccc(Cl)c(Cl)c2)CCO1.O=CO [Example 218, N-{[(2S)-4-(3,4-dichlorobenzyl)morpholin-2-yl]methyl}-2-(5-methyl-2-pyridin-2-yl-1,3-oxazol-4-yl)acetamide compound with formic acid (1:1)] | greater than 5.0 |
| O=C(Cn1nnc(-c2ccc(F)cc2)n1)NC[C@H]1CN(Cc2ccc(Cl)c(Cl)c2)CCO1 [Example 219, N-{[(2S)-4-(3,4-dichlorobenzyl)morpholin-2-yl]methyl}-2-[5-(4-fluorophenyl)-2H-tetraazol-2-yl]acetamide] | greater than 5.0 |
| O=C(Cc1noc(-c2ccc(F)cc2)n1)NC[C@H]1CN(Cc2ccc(Cl)c(Cl)c2)CCO1 [Example 220, N-{[(2S)-4-(3,4-Dichlorobenal)morpholin-2-yl]methyl}-2-[5-(4-fluorophenyl)-1,2,4-oxadiazol-3-yl]acetamide] | greater than 5.0 |
| Cc1oc(-c2ccc(F)cc2)nc1CC(=O)NC[C@H]1CN(Cc2ccc3nsnc3c2)CCO1 [Example 221] | greater than 5.0 |
| Cc1oc(-c2ccc(C(=O)N(C)C)cc2)nc1CC(=O)NC[C@H]1CN(Cc2ccc(Cl)c(Cl)c2)CCO1 [Example 222] | greater than 5.0 |
| CC(=O)Nc1ccc(-c2nc(CC(=O)NC[C@H]3CN(Cc4ccc(Cl)c(Cl)c4)CCO3)c(C)o2)cc1 [Example 223] | greater than 5.0 |
| Cc1oc(-c2ccc(F)cc2)nc1CC(=O)NC[C@H]1CN(Cc2ccc3nnsc3c2)CCO1 [Example 224] | greater than 5.0 |

| Molecule | pIC50 value in CCR-3 binding assay (assay (a)) |
| --- | --- |
| CCCCC(=O)NC[C@H]1CN(Cc2ccc(Cl)c(Cl)c2)CCO1 [Example 225, N-{[(2S)-4-(3,4-dichlorobenzyl)morpholin-2-yl]methyl}pentanamide] | greater than 5.0 |
| CC(C)CCC(=O)NC[C@H]1CN(Cc2ccc(Cl)c(Cl)c2)CCO1 [Example 226] | greater than 5.0 |
| O=C(COc1ccccc1)NCC1CN(CCCc2ccc(Cl)c(Cl)c2)CCO1 (stereo not shown) [Example 227] | greater than 5.0 |
| O=C(CC1CCCCC1)NCC1CN(Cc2ccc(Cl)c(Cl)c2)CCO1.O=C(O)C(F)(F)F (stereo not shown) [Example 228] | greater than 5.0 |
| CC(C(=O)NCC1CN(Cc2ccc(Cl)c(Cl)c2)CCO1)c1ccc(Cl)cc1 (stereo not shown) [Example 229] | greater than 5.0 |
| O=C(CN1CCS(=O)(=O)CC1)NCC1CN(Cc2ccc(Cl)c(Cl)c2)CCO1 (stereo not shown) [Example 230] | greater than 5.0 |
| Cc1oc(-c2ccc(F)cc2)nc1CC(=O)NC[C@H]1CN(CC(=O)c2ccc(F)cc2)CCO1 [Example 231] | greater than 5.0 |
| Cc1oc(-c2ccc(F)cc2)nc1CC(=O)NC[C@H]1CN(Cc2sc3ccccc3c2Cl)CCO1 [Example 232] | greater than 5.0 |
| C=C(C)CN1CCO[C@@H](CNC(=O)Cc2nc(-c3ccc(F)cc3)oc2C)C1 [Example 233] | greater than 5.0 |
| Cc1oc(-c2ccc(F)cc2)nc1CC(=O)NC[C@H]1CN(C(C)c2ccccc2)CCO1 (stereo partly shown) [Example 234] | greater than 5.0 |
| Cc1oc(-c2ccc(F)cc2)nc1CC(=O)NC[C@H]1CN(Cc2ccc(F)c(C#N)c2)CCO1 [Example 235] | greater than 5.0 |
| CC(C)c1oc(-c2ccc(F)cc2)nc1CC(=O)NC[C@H]1CN(Cc2ccc(Cl)c(Cl)c2)CCO1 [Example 236] | greater than 5.0 |
| O=C(NC[C@H]1CN(Cc2ccc(Cl)c(Cl)c2)CCO1)C1CC1 [Example 237] | greater than 5.0 |
| Cc1oc(-c2ccc(F)cc2)nc1CC(=O)NC[C@H]1CN(CCOc2cccc(Cl)c2)CCO1 [Example 238] | greater than 5.0 |
| Cc1oc(-c2ccc(F)cc2)nc1CC(=O)NC[C@H]1CN(C(=O)c2ccc(Cl)c(Cl)c2)CCO1 [Example 239, N-{[(2S)-4-(3,4-dichlorobenzoyl)morpholin-2-yl]methyl}-2-[2-(4-fluorophel)-5-methyl-1,3-oxazol-4-yl]acetamide] | greater than 5.0 |
| CC(C)(C)OC(=O)N1CCC(CCC(=O)NC[C@H]2CN(Cc3ccc(Cl)c(Cl)c3)CCO2)CC1 [Example 240, tert-butyl 4-[3-({[(2S)-4-(3,4-dichlorobenzyl)morpholin-2-yl]methyl}amino)-3-oxopropyl]piperidine-1-carboxylate] | greater than 5.0 |
| methyl 1-[2-({[4-(3,4-dichlorobenzyl)morpholin-2-yl]methyl}amino)-2-oxoethyl]-1H-1,2,3-benzotriazole-5-carboxylate, compound with methyl 1-[2-({[4-(3,4-dichlorobenzyl)morpholin-2-yl]methyl}amino)-2-oxoethyl]-1H-1,2,3-benzotriazole-6-carboxylate (1:1) [Example 174] | greater than 5.0 |
